Experimental findings from article PMC12568504 are described below.

Sequences of proteins named here, by UniProt entry; tags and fusion partners are left off.
UniProt P25106: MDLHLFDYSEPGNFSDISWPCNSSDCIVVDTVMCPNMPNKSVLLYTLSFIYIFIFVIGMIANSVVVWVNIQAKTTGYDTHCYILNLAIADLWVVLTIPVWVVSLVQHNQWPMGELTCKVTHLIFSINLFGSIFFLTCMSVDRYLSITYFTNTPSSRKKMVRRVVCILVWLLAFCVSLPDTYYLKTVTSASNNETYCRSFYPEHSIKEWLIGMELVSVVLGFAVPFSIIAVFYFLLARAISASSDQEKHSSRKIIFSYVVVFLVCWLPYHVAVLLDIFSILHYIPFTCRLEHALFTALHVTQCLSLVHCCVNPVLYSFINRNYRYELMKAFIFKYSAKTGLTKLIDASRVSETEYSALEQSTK
UniProt P37802: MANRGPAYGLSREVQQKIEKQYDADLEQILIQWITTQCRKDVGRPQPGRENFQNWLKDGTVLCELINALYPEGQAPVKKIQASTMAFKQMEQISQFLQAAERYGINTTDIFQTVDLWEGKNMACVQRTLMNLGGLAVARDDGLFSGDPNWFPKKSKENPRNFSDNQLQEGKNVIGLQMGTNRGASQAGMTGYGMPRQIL

The target in the assay is CXCR7 (human (endogenous in TPC-1)) (UniProt P25106). Description: co-IP; TPC-1 total protein extract in IP lysis buffer; 1 ug CXCR7 antibody at 4 C overnight, protein A/G agarose beads 2 h at 4 C; IgG as negative control; Western blot for TAGLN2 and CXCR7.

Results are given in words; binding and its absence hold for the method and conditions named. In cells and extracts the contact can be indirect. Some entries that bind do so weakly or less than the wild type.

With “TAGLN2 (Transgelin-2) (from UniProt P37802 1-199)”, the binding result was “binds”.
